Experimental data published in patent US20200230115A1, “METHODS OF TREATING INFLUENZA-ASSOCIATED VIRAL PNEUMONIA” (priority 2017, published 2020).
Entries after “also recorded” stand apart in the source; their conditions may differ. At least one structure is not confirmed: it was looked up by name or label, or the drawing left a doubt.

Experiments:
IAV (WSNHAnc-Asp225Gly) [1] = test system: IAV (WSNHAnc-Asp225Gly); parameters: species or system DBA/2J mice; details: mouse, in vivo
IAV (WSNHAnc-Asp225Gly) [2] = test system: IAV (WSNHAnc-Asp225Gly); parameters: species or system DBA/2J mice; details: mouse, in vivo; remark: listed apart in the source

## CO[C@H]1C[C@@H]2CC[C@@H](C)[C@@](O)(O2)C(=O)C(=O)N2CCCC[C@H]2C(=O)O[C@H]([C@H](C)C[C@@H]2CC[C@@H](O)[C@H](OC)C2)CC(=O)[C@H](C)/C=C(\C)[C@@H](O)[C@@H](OC)C(=O)[C@H](C)C[C@H](C)/C=C/C=C/C=C/1C [rapamycin, reference compound]
IAV (WSNHAnc-Asp225Gly) [1]
  KGF-accelerated mortality: blocked; also recorded: significant reduction in KGF-accelerated mortality
IAV (WSNHAnc-Asp225Gly) [2]
  IAV-NP levels (IAV production) by Western blot: attenuates IAV production in vivo
